For 42 sequences, binding signal results are on record in article PMC7819943, “Rice protein-binding microarrays: a tool to detect cis-acting elements near promoter regions in rice”.

The chains behind the UniProt entries cited, without tags or fusion partners.
UniProt Q0JBA9, entry or part of it: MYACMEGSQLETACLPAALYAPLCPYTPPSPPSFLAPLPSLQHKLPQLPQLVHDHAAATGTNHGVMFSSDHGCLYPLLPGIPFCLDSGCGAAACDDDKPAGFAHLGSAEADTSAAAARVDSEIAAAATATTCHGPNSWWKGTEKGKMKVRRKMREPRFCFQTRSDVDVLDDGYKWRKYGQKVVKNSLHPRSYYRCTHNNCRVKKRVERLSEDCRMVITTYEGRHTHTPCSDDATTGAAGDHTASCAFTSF

This is one part of the list.

For this assay, the target named is OsWRKY34 (Oryza sativa, UniProt Q0JBA9 1-250). As to the kind of experiment: protein-binding microarray (RPBM); PBS, 2% BSA, 51.3 ng/ul salmon testes DNA, 50 uM zinc acetate, 200 nM TF, 25 C, 1 h; high values mean tight binding. The conditions noted are these: protein: recombinant; tags: N-terminal polyhistidine and DsRed monomer fusion (pET32a); label: CyDye5-dUTP incorporated in the synthesized complementary strand; 3' TTTTT single-stranded linker to array surface; dsDNA, one strand shown. In short, it runs like this: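 Polyhistidine-tagged DsRed fusions of transcription factors, joined at the N-terminus, were expressed in E. coli BL21-CodonPlus and isolated on Ni–NTA. They were incubated at 200 nM for 1 h at 25 °C on a custom Agilent array, double-stranded and BSA-blocked, in PBS with 2% BSA, salmon testes DNA and 50 µM zinc acetate. The binding signal is per-feature fluorescence intensity (arbitrary units) read on an Axon 4000B scanner after washing.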
Take “CCGAACCTGTATAAAATTTTTGTCTCCATCTTCTTTTACTCGGAGTCACCTAGTGCAG”: the binding signal was 8320 fluorescence intensity (a.u.). The figure for “CCACCCCTACCACCGCACAATCTCATCACTCTTCACCCGCCGGAGTCACCTAGTGCAG” is 8080 fluorescence intensity (a.u.); for “GAGTTGGTGTGGGTGGGATTGGCATTGTATCGTGAGAGAGCGGAGTCACCTAGTGCAG” it is 15200 fluorescence intensity (a.u.); for “TCACCGCTCCGTTCCGTTCCGTTCCATTTCCGCCTTGCTCCGGAGTCACCTAGTGCAG” it is 9230 fluorescence intensity (a.u.). “TCAAAATCAGTCACAATAAATTCGGTTTTGATCCCGGTTTCGGAGTCACCTAGTGCAG”: the binding signal was 9770 fluorescence intensity (a.u.). For the sequence “CTCGGCCATTCACACCTCCTGCCGGTCTCCTCCGAACCCTCGGAGTCACCTAGTGCAG”, the binding signal was 8790 fluorescence intensity (a.u.). As for “CAACGGCCGCAACAGCCTCCTTTCCTGTCGAATCTCGCAACGGAGTCACCTAGTGCAG”, the binding signal is 8440 fluorescence intensity (a.u.). In the case of “CCTCTTTGTGCTCATCTAGTCATCTCTCGTTCTCTTTTTTCGGAGTCACCTAGTGCAG”, the binding signal was 9970 fluorescence intensity (a.u.). The figure for “CGTCTTCATCCGCCGCTTCAAAAACCAGAGATAAACCTCGCGGAGTCACCTAGTGCAG” is 8810 fluorescence intensity (a.u.); for “TAAATATTTCTCAACTTTTTCTCAATTTTCTCGTCTTTTCCGGAGTCACCTAGTGCAG” it is 9620 fluorescence intensity (a.u.). Take “GATTTGGGTTGAAATATGATATGGGTTGGATTGGTTTGGACGGAGTCACCTAGTGCAG”: the binding signal is 16100 fluorescence intensity (a.u.). In the case of “CAATTGCCTTTTTTTTTTGTCTCCGGCCCATGTGAGAACACGGAGTCACCTAGTGCAG”, the binding signal was 8580 fluorescence intensity (a.u.). The figure for “CGAGGATATCGTATATATGGATCTCCTGCAGCCCAATCTCCGGAGTCACCTAGTGCAG” is 8930 fluorescence intensity (a.u.); for “ATATCATTCTTTGAGGGCTTCTTTGGTTGTATGCCACACACGGAGTCACCTAGTGCAG” it is 9660 fluorescence intensity (a.u.).

As for “TTCTTTGTGTCTATCTCTCTCATCTAATTTCTACGTATTTCGGAGTCACCTAGTGCAG”, the binding signal is 10900 fluorescence intensity (a.u.). As to “AAAAAATAGCCACACCACGCATCAACGTCTAATCCTGCTACGGAGTCACCTAGTGCAG”, the binding signal is 8560 fluorescence intensity (a.u.). As to “GGCCTCCTTCATCACGCCCTGGATCTCACTGACTAAAAACCGGAGTCACCTAGTGCAG”, the binding signal was 8030 fluorescence intensity (a.u.). The figure for “CACGGATCGCTGCCCCACTCCCAACCCATCTCCACCGTCCCGGAGTCACCTAGTGCAG” is 8390 fluorescence intensity (a.u.). The figure for “GTAGTATTGTACTAATCTCTCACACTATTACAGGCTTACACGGAGTCACCTAGTGCAG” is 8810 fluorescence intensity (a.u.); for “GGCGAGGGGAGAAGAGAAGAGGTGGGTGAGGTGGGGTTTCCGGAGTCACCTAGTGCAG” it is 12800 fluorescence intensity (a.u.); for “TCCTGCCACTTCACCACCGCACAGCGAGCTCGCCGCGGAGCGGAGTCACCTAGTGCAG” it is 8060 fluorescence intensity (a.u.).

For “GCTGTCGTTGAATTTTTGTTTGTTTTCTTGGCGTGTTGCACGGAGTCACCTAGTGCAG”, the binding signal is 13300 fluorescence intensity (a.u.). The figure for “ACCCCTTTTCCCACTAGTACTTGCCGTGCCTTCCTCTCTCCGGAGTCACCTAGTGCAG” is 10100 fluorescence intensity (a.u.); for “GACACCATACTGATTAGTCTTTTCATGCATTGCAGTATTTCGGAGTCACCTAGTGCAG” it is 9360 fluorescence intensity (a.u.); for “TCGACCTGTCCACTATGCTTTTTTCTTTGTCTCTGTCCGCCGGAGTCACCTAGTGCAG” it is 9630 fluorescence intensity (a.u.). The figure for “ACCCGCCGCTGCCTGCTTCCCTGCTCGCGCCGCGCCGCGCCGGAGTCACCTAGTGCAG” is 11100 fluorescence intensity (a.u.).

In the case of “TCCCCTTGCAGCGAGCTCAATCGATCTCTTTACATCTCGTCGGAGTCACCTAGTGCAG”, the binding signal was 10200 fluorescence intensity (a.u.). Take “TTTCCGCGCGTATGTTTTCCAAACTACTAAACGTTGTATTCGGAGTCACCTAGTGCAG”: the binding signal is 8060 fluorescence intensity (a.u.). On to “ATCGTCGTCGTCATCGGTATCCTTCATTCTGACATGCATTCGGAGTCACCTAGTGCAG”, for which the binding signal is 8620 fluorescence intensity (a.u.).

On to “ATATCTGTTACTTTTTGTCTGGATGGAATTCTTATTCTTACGGAGTCACCTAGTGCAG”, for which the binding signal was 9070 fluorescence intensity (a.u.). The figure for “GGGGTGGTTTTGGCTGAGCTGCTTGTGTCCTCTTCTTGCTCGGAGTCACCTAGTGCAG” is 18400 fluorescence intensity (a.u.); for “ATGTTTGACGCCGTTGATATTTTAGCACATGTTTGACTGTCGGAGTCACCTAGTGCAG” it is 11400 fluorescence intensity (a.u.); for “GTTGCAGATCATTGTTCTCTCTTTGTTGCACTTTTTCGTACGGAGTCACCTAGTGCAG” it is 8780 fluorescence intensity (a.u.). Turning to “TCCAATTTGCTTTCGTCCCGCTTTGAACCTAAAATTTTTTCGGAGTCACCTAGTGCAG”, the binding signal was 9710 fluorescence intensity (a.u.).

Take “TCCGTGTCCAATGTTTGACCATCCGTCTTATTTAAAAAAACGGAGTCACCTAGTGCAG”: the binding signal is 8070 fluorescence intensity (a.u.). For the sequence “GATGGATTTCACGGCCTTACATGCGTCCGCGTCGCCTCTGCGGAGTCACCTAGTGCAG”, the binding signal was 8320 fluorescence intensity (a.u.). As for “TCAGTTACCTTGGCTTCAAGCCTCCATATCGCGGTAAAAGCGGAGTCACCTAGTGCAG”, the binding signal was 10500 fluorescence intensity (a.u.). Consider “GAGGTGGGTGGGAGGGAGGGACGCGTAGCGGAGGTCGGAGCGGAGTCACCTAGTGCAG”, for which the binding signal is 14700 fluorescence intensity (a.u.). Consider “TGTGTTCCCTTTCGGTACGTTGTATTTCGACCCTGACGTTCGGAGTCACCTAGTGCAG”, for which the binding signal was 8710 fluorescence intensity (a.u.).

For the sequence “CGCTTTTTGTCCAGTTAATTGCCCGTTATAAGCTCGGATTCGGAGTCACCTAGTGCAG”, the binding signal is 8350 fluorescence intensity (a.u.). “CACTGCTTTTTGCTATACCTTGTACAAGGGTGTTTAGATTCGGAGTCACCTAGTGCAG”: the binding signal was 9530 fluorescence intensity (a.u.). As to “GCAGGTTGATGCATAGCTCGCGCGCACGCGCCTGTGTCCACGGAGTCACCTAGTGCAG”, the binding signal was 9800 fluorescence intensity (a.u.).
